# Test results as given in patent publication US20250340551A1, “SMALL MOLECULE MODULATORS OF STAT6” (Gilead Sciences, Inc., priority 2024, published 2025).
# Chains of the proteins cited; added tags and fusions are not shown. Residues count along the entry.
# UniProt P42226, 122-658 limits assumed: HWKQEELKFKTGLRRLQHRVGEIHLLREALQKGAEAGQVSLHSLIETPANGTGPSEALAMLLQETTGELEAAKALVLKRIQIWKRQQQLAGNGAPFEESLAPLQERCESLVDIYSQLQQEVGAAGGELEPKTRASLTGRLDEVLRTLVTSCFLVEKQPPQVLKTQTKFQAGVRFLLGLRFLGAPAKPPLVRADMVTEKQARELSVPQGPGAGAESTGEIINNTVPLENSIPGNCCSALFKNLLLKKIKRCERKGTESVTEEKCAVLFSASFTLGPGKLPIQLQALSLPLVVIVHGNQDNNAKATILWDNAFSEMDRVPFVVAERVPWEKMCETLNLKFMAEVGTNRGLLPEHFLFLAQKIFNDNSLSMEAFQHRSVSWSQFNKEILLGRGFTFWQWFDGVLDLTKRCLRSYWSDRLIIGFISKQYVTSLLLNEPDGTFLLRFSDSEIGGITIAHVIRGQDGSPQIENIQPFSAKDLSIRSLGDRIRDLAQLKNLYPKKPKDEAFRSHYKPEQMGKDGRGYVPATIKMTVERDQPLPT
# The match of structure and compound is tentative.
# Target: human STAT6 (Homo sapiens (Human), UniProt P42226)
# Assay: Surface plasmon resonance assay (Biacore 8K, binding to immobilized STAT6)
# Details: read-out: STAT6 SPR Kd; human STAT6 aa122-658, N-terminal His-tag, CM5 chip, 25° C.; geometric mean
row,SMILES,Kd
1,CNc1ccc(-c2ccnc3c2cc(CN2CCC(c4ccc(C(=O)N(C)C)cc4)CC2)n3CC(C)(F)F)cn1,628 nM
2,CN(C)C(=O)c1ccc(C2CCN(Cc3cc4c(-c5ccc(N)c[n+]5[O-])ccnc4n3C)CC2)cc1,23.9 nM
